From PMC5397179 come the findings set out here.

Amino acid sequences for entries named in this document (tags omitted).
UniProt O31498: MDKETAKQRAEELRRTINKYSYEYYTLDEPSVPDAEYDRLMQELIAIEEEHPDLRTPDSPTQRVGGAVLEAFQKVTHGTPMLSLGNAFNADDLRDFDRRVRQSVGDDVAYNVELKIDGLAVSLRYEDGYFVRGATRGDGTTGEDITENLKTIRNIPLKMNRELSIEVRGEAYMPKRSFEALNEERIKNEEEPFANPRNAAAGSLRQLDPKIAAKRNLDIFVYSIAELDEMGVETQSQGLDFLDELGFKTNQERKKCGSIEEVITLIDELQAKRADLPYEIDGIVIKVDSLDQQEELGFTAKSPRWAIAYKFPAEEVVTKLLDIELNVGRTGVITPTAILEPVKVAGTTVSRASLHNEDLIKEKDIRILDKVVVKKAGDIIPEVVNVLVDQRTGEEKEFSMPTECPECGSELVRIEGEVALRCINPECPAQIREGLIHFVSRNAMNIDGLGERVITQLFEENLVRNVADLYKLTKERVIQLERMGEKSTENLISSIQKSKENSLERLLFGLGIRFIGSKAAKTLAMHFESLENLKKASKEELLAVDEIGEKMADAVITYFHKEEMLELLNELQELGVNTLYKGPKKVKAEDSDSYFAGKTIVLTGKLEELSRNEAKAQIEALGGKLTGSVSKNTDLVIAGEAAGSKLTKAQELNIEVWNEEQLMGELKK

Assay in all cases: affinity purification with mass spectrometry; biotinylated purified bait on streptavidin-coated magnetic beads; prey: DNA/RNA-depleted extract of B. subtilis 168; relative ion scores against a 'no bait' pulldown; only the target purified
Assay [1] addresses T1, Biotinylated PcrA-Ct (residues 653-724 of Geobacillus stearothermophilus PcrA) (Geobacillus stearothermophilus) (UniProt P56255).
T1 sequence (chain, biotin): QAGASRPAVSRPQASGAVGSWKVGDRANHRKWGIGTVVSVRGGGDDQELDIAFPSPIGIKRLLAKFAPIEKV

The target in assay [2] is T2, Biotinylated full length PcrA (Geobacillus stearothermophilus), wild type (Geobacillus stearothermophilus) (UniProt P56255).
T2 sequence (chain, biotin): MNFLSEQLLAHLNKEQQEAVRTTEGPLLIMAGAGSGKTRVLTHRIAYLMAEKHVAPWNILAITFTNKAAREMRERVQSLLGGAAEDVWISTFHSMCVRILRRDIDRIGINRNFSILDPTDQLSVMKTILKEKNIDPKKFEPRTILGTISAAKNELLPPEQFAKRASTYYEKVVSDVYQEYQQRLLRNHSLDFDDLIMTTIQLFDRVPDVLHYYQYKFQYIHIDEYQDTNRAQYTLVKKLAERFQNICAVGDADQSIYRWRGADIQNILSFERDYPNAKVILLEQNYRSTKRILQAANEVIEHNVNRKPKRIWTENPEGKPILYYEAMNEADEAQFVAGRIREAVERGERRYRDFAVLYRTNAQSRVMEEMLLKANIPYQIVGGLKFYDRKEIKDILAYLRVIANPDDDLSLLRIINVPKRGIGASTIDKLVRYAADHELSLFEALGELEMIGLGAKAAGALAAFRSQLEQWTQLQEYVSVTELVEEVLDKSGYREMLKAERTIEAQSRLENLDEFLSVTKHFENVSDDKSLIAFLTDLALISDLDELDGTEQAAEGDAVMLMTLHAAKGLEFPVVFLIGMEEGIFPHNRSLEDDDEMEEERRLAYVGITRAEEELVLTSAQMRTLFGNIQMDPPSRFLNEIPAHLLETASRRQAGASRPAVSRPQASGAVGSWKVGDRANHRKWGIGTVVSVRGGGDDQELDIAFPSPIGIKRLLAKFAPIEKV

Assay [3] addresses T3, Biotinylated full length PcrA K712A (Geobacillus stearothermophilus) (UniProt P56255).
T3 sequence (chain, biotin): T2 sequence (chain, biotin) with K712A

The target of assay [4] is T4, Biotinylated full length PcrA L714A (Geobacillus stearothermophilus) (UniProt P56255).
T4 sequence (chain, biotin): T2 sequence (chain, biotin) with L714A

Positions count from the first letter of the chain named. No constants are given. Whether binding was seen depends on the method and setting. Binding seen in cells or lysates may run through a third protein. A yes stands for co-enrichment or nearness to the bait. Other partners may have been found.

For the substance “LigA (NAD+-dependent DNA ligase), Bacillus subtilis (from UniProt O31498 1-668) (enzyme)”, the binding entry in assay [1] is “binds weakly”; in assay [2], “binds”; in assay [3], “binds”; in assay [4], “binds”.
